Laboratory results taken from the supplement of paper PMC7752906.
Where a name gives a salt, the structure may show the parent alone. The list shows a part of the results. Single values are uncertain here, since repeats match poorly.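 Test system: Schistosoma mansoni schistosomula, roughly 40 per well, imaged in bright field over time and compared with wells given 0.1% DMSO. Distance read-out: the paper calls a drug a hit when its Mahalanobis distance is at least 2.47, three standard deviations above the DMSO control mean. Degeneracy is the share of worms classified opaque.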

System: Schistosoma mansoni schistosomula
Experiment: degeneracy (percent of somules classified as degenerate/opaque); higher = more parasite degeneration/death; extreme values may be limits of the assay
Details: 10 µM; 72 h

SMILES | degeneracy
CCc1ccc(CCOc2ccc(CC3SC(=O)NC3=O)cc2)nc1 (centres undefined) [Pioglitazone] | 0%
OCCN1CCN(CCCN2c3ccccc3Sc3ccc(C(F)(F)F)cc32)CC1 [fluphenazine] | 100%
CC(C)(Oc1ccc(CCNC(=O)c2ccc(Cl)cc2)cc1)C(=O)O [Bezafibrate] | 6.67%
Clc1ccc2c(c1)C(N1CCNCC1)=Nc1ccccc1O2 [Amoxapine] | 100%
CC[C@H]1OC(=O)[C@H](C)[C@@H](O[C@H]2C[C@@](C)(OC)[C@@H](O)[C@H](C)O2)[C@H](C)[C@@H](O[C@@H]2O[C@H](C)C[C@H](N(C)C)[C@H]2O)[C@](C)(O)C[C@@H](C)C(=O)[C@H](C)[C@@H](O)[C@]1(C)O [Erythromycin] | 0%
CC(C(=O)O)c1ccc(CC2CCCC2=O)cc1 (centres undefined) [Loxoprofen] | 2.7%
CC1=C(/C=C/C(C)=C/C=C/C(C)=C/C=C/C=C(C)/C=C/C=C(C)/C=C/C2=C(C)CCCC2(C)C)C(C)(C)CCC1 [Beta-carotene] | 0%
NC(=O)c1ccccc1O [Salicylamide] | 4%
CCOC(=O)N1CCC(=C2c3ccc(Cl)cc3CCc3cccnc32)CC1 [Loratadine] | 16.7%
Oc1c(Br)cc(Br)c2cccnc12 [Broxyquinoline] | 100%
COc1ccc(CC(C)NCC(O)c2ccc(O)c(NC=O)c2)cc1 (centres undefined) [Formoterol] | 100%
CC(C)C[C@H](NC(=O)[C@H](Cc1ccccc1)NC(=O)c1cnccn1)B(O)O [Bortezomib] | 100%
CN(C)[C@@H]1C(O)=C(C(N)=O)C(=O)[C@@]2(O)C(O)=C3C(=O)c4c(O)cccc4[C@@](C)(O)[C@H]3C[C@@H]12 [Tetracycline] | 6.25%
COC(=O)[C@H](c1ccccc1Cl)N1CCc2sccc2C1 [Clopidogrel] | 11.9%
C[C@]12CCC(=O)C=C1CC[C@@H]1[C@@H]2C(=O)C[C@@]2(C)[C@H]1CC[C@]2(O)C(=O)CO [Cortisone] | 5.26%
CC(=O)[C@@]12O[C@](C)(c3ccccc3)O[C@@H]1C[C@H]1[C@@H]3CCC4=CC(=O)CC[C@]4(C)[C@H]3CC[C@@]12C [Algestone Acetophenide] | 100%
Nc1ccc(S(=O)(=O)NC(=O)c2ccccc2)cc1 [Sulfabenzamide] | 0%
C[N+](C)(C)CCOP(=O)(O)OP(=O)([O-])OC[C@H]1O[C@@H](n2ccc(N)nc2=O)[C@H](O)[C@@H]1O [Citicoline] | 2.86%
Cc1cccc(C)c1NC(=O)c1ccccc1C(=O)O [Ftaxilide] | 5.26%
CS(=O)(=O)c1ccc([C@@H](O)[C@@H](CF)NC(=O)C(Cl)Cl)cc1 [Florfenicol] | 0%
c1ccc2c(c1)CCCC2C1=NCCN1 (centres undefined) [Tetrahydrozoline] | 3.12%
CCCCN1C[C@H](O)[C@@H](O)[C@H](O)[C@H]1CO [Miglustat] | 5.56%
C[C@@H](O)[C@H]1C(=O)N2C(C(=O)O)=C(SCCNC=N)C[C@H]12 [Imipenem] | 0%
CCCCCN(C)CCC(O)(P(=O)(O)O)P(=O)(O)O [Ibandronate Sodium] | 0%
C[Se]CC[C@H](N)C(=O)O [Selenomethionine] | 4.65%

Looked up above.
In degeneracy, CCCCN1C[C@H](O)[C@@H](O)[C@H](O)[C@H]1CO [Miglustat] reads 5.56%
In degeneracy, CCCCCN(C)CCC(O)(P(=O)(O)O)P(=O)(O)O [Ibandronate Sodium] reads 0%
In degeneracy, OCCN1CCN(CCCN2c3ccccc3Sc3ccc(C(F)(F)F)cc32)CC1 [fluphenazine] reads 100%

Later entries

SMILES | degeneracy
OC[C@@H](O)[C@@H](O)[C@H](O)[C@H](O)CO [Mannitol] | 31.6%
CCn1cc(C(=O)O)c(=O)c2cc(F)c(N3CCNCC3)nc21 [Enoxacin] | 3.57%
Oc1ccc(C2CNCCc3c2cc(O)c(O)c3Cl)cc1 (centres undefined) [Fenoldopam Mesylate] | 0%
CC(C(=O)O)c1cccc(Oc2ccccc2)c1 (centres undefined) [Fenoprofen] | 0%
CCCc1ncc(C[n+]2ccccc2C)c(N)n1 [Amprolium] | 7.14%
CCCOc1cc(N)ccc1C(=O)OCCN(CC)CC [Propoxycaine Hydrochloride] | 8.57%
OC(Cn1cncn1)(Cn1cncn1)c1ccc(F)cc1F [Fluconazole] | 4.55%
CC[N+](C)(C)c1cccc(O)c1 [Edrophonium Chloride] | 5%
Nc1[nH]cnc2ncnc1-2 [Adenine] | 2.5%
CCCCCCCCCCCCCCCC(=O)OC/C=C(C)/C=C/C=C(C)/C=C/C1=C(C)CCCC1(C)C [Retinyl Palmitate] | 9.38%
NS(=O)(=O)c1cc(C2(O)NC(=O)c3ccccc32)ccc1Cl (centres undefined) [Chlorthalidone] | 4%
Cc1ncc(C[n+]2csc(CCO)c2C)c(N)n1 [Thiamine] | 5.13%
CC(C)c1c(C(=O)Nc2ccccc2)c(-c2ccccc2)c(-c2ccc(F)cc2)n1CC[C@@H](O)C[C@@H](O)CC(=O)O [Atorvastatin Calcium] | 76.9%
O=C(O)CN1C(=O)c2cccc3cccc(c23)C1=O [Alrestatin] | 25%
CCCCN(CCCC)CCCOC(=O)c1ccc(N)cc1 [Butacaine] | 0%
Cc1ccc(C(=O)c2ccc(CC(=O)O)n2C)cc1 [Tolmetin Sodium] | 10.7%
CC(=O)OCC(=O)[C@@]1(O)CC[C@H]2[C@@H]3CCC4=CC(=O)C=C[C@]4(C)[C@@]3(Cl)[C@@H](Cl)C[C@@]21C [Dichlorisone Acetate] | 3.57%
O=C(O)CCCCCCCC(=O)O [Azelaic Acid] | 5.26%
C=C1CC[C@H](O)C/C1=C/C=C1\CCC[C@]2(C)[C@@H]([C@H](C)CCCC(C)C)CC[C@@H]12 [Cholecalciferol] | 13.3%
Cc1nccnc1N1CCCCC1 [Modaline Sulfate] | 10.7%
CC(=O)S[C@@H]1CC2=CC(=O)CC[C@]2(C)[C@H]2CC[C@@]3(C)[C@@H](CC[C@@]34CCC(=O)O4)[C@H]12 [Spironolactone] | 14.3%
CC(Cc1cccc(C(F)(F)F)c1)NCCOC(=O)c1ccccc1 (centres undefined) [Benfluorex Hydrochloride] | 100%
CN1CCC(=C2c3ccccc3C=Cc3ccccc32)CC1 [Cyproheptadine] | 28.6%
CO[C@H]1/C=C/O[C@@]2(C)Oc3c(C)c(O)c4c(O)c(c(/C=N/N5CCN(C6CCCC6)CC5)c(O)c4c3C2=O)NC(=O)/C(C)=C\C=C\[C@H](C)[C@H](O)[C@@H](C)[C@@H](O)[C@@H](C)[C@H](OC(C)=O)[C@@H]1C [Rifapentine] | 10.3%
CC(C)(CO)[C@@H](O)C(=O)NCCC(=O)NCCSSCCNC(=O)CCNC(=O)[C@H](O)C(C)(C)CO [Pantethine] | 0%

As a short view, two of the compounds above:
SMILES | degeneracy
CC(Cc1cccc(C(F)(F)F)c1)NCCOC(=O)c1ccccc1 (centres undefined) [Benfluorex Hydrochloride] | 100%
CN1CCC(=C2c3ccccc3C=Cc3ccccc32)CC1 [Cyproheptadine] | 28.6%

Carrying on.

SMILES | degeneracy
CN1CCN(CC/C=C2/c3ccccc3Sc3ccc(S(=O)(=O)N(C)C)cc32)CC1 [Thiothixene] | 100%
O=C(O)Cc1ccc(-c2ccccc2)cc1 [Felbinac] | 8.33%
O=C(O)c1cn(-c2ccc(F)cc2)c2cc(N3CCNCC3)c(F)cc2c1=O [Sarafloxacin Hydrochloride] | 6.52%
CC(=O)OCC(=O)[C@@]1(O)[C@@H](C)C[C@H]2[C@@H]3CCC4=CC(=O)C=C[C@]4(C)[C@@]3(F)[C@@H](O)C[C@@]21C [Betamethasone Acetate] | 8%
CN1CCN(C2=Nc3ccccc3Oc3ccc(Cl)cc32)CC1 [Loxapine Succinate] | 0%
CC(C)CC(N)=O [Isovaleramide] | 9.09%
Oc1ccc2ccccc2c1 [Beta-naphthol] | 100%
CN(C)CCCN1c2ccccc2Sc2ccc(C(F)(F)F)cc21 [Triflupromazine Hydrochloride] | 100%
CC(=O)Oc1ccccc1C(=O)Nc1ncc([N+](=O)[O-])s1 [Nitazoxanide] | 100%
CC1(C)OC(=O)C(OCC2CC2)=C1c1ccc(S(C)(=O)=O)cc1 [Firocoxib] | 7.69%
CCN(CC)CCOC(=O)C1(C2CCCCC2)CCCCC1 [Dicyclomine] | 100%
CCCCOCCOCCOCc1cc2c(cc1CCC)OCO2 [Piperonyl Butoxide] | 3.45%
CC[N+](C)(CC)CCOC(=O)C(O)(c1ccccc1)C1CCCCC1 (centres undefined) [Oxyphenonium Bromide] | 8.11%
CN(C)CCc1c[nH]c2ccc(C[C@H]3COC(=O)N3)cc12 [Zolmitriptan] | 2.63%
CN(C)CCC=C1c2ccccc2C=Cc2ccccc21 [Cyclobenzaprine] | 100%
O=c1[nH]c(=O)n([C@H]2C[C@H](O)[C@@H](CO)O2)cc1F [Floxuridine] | 88%
CC1=C(/C=C/C(C)=C/C=C/C(C)=C/C(=O)Nc2ccc(O)cc2)C(C)(C)CCC1 [Fenretinide] | 100%
Nc1ncnc2c1ncn2[C@@H]1O[C@H](COP(=O)(O)O)[C@@H](O)[C@H]1O [Adenosine Phosphate] | 19.1%
CCC(=O)O[C@H]1[C@H](O[C@@H]2[C@@H](C)[C@H](O[C@H]3C[C@@](C)(OC)[C@@H](O)[C@H](C)O3)[C@@H](C)C(=O)O[C@H](CC)[C@@](C)(O)[C@H](O)[C@@H](C)C(=O)[C@H](C)C[C@@]2(C)O)O[C@H](C)C[C@@H]1N(C)C [Erythromycin Propionate] | 100%
CC(=O)Oc1cc(C(C)C)c(OCCN(C)C)cc1C [Moxisylyte Hydrochoride] | 4.65%
O=C(O)c1cc(O)c2c(c1)[C@H]([C@H]1c3cc(C(=O)O)cc(O)c3C(=O)c3c(O[C@@H]4O[C@H](CO)[C@@H](O)[C@H](O)[C@H]4O)cccc31)c1cccc(O[C@@H]3O[C@H](CO)[C@@H](O)[C@H](O)[C@H]3O)c1C2=O [Sennoside A] | 4.65%
CN(C)CCCOc1nn(Cc2ccccc2)c2ccccc12 [Benzydamine Hydrochloride] | 37.5%
S=C=Nc1ccc(N=C=S)cc1 [Bitoscanate] | 100%
OC[C@@H](O)[C@@H](O)[C@H](O)[C@@H](O)CO [Sorbitol] | 0%
